These are yes or no findings as the source states them, for the method shown. Some entries that bind do so weakly or less than the wild type.
Molecular target: T1, Bacillus amyloliquefaciens YknZ extracellular domain (B. amyloliquefaciens)
T1 sequence: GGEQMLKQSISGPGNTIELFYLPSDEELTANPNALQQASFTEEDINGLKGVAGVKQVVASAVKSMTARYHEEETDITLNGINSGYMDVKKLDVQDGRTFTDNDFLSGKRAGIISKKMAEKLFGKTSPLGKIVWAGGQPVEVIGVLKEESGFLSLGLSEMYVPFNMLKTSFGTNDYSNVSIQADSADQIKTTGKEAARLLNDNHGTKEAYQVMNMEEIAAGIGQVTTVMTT
Experiment: pull-down; Ba YknZ ED coupled to CNBr-activated resin; 0.6 mg purified YknX with 20 μl resin in 200 μl 20 mM HEPES pH 7.5, 150 mM NaCl, 2 mM 2-mercaptoethanol, 2 h at 277 K; five washes; SDS-PAGE, Coomassie blue; uncoupled resin as control; both purified

B1: Bacillus amyloliquefaciens YknX (residues 34-378) (domain or fragment, UniProt A0A9P1JGR6 34-378)
chain: GEKVETGTMEKRKISSSVMVPGTLKFSKEQYVFYEADKGTLDKVKVKEGDKVKEGSSLVTYTNEQLNLDKEQNELTEQSKRLQIEQIEEKLRALNSKEKDLAKQVGEAEAQKQIESERTDLQLQQKTAEIELKQSDLQKQSLENQVANLTVKSEMDGTVISVNQEAASKKSDIQEPVIHIGDPEHLIVAGNLSEYDTLKVKKGQSVTITSDAIPDKTWKGRVAAVGLVPEQKSGAASGGNTEQAVQYPFQVKLIGNLPEGKPGFKLIMNIETDKRKADTLPSSAVKKDGDEHWVFTVKDGKAKRVKVKVGDTAKQLTEIKEGLSKDDKVILNPADGLTDGTDVKA
binding: binds

Reference: PMC4887032
